Laboratory results: US7569724B2, “Carbamic acid compounds comprising an amide linkage as HDAC inhibitors” (Topotarget UK Limited, priority 2000, dated 2009)

Columns and labels:
[1] = system: K11 HPV E7 transformed human keratinocyte line; experiment: Secondary assay: cell proliferation WST-1, K11; assay type: cell-based; conditions: 48 h, read-out: Cell Proliferation Inhibition WST-1 (IC50 unless otherwise specified) K11
Method: (§1) Compounds with HDAC inhibition activity, as determined using the primary assay, were subsequently evaluated using secondary cell-based assays. The following cell lines were used:
K11—HPV E7 transformed human keratinocyte line provided by Pidder Jansen-Duerr, Institut für Biomedizinische Alternsforschung, Innsbruck, Austria.
(§2) Cells were plated in 96-well plates at 3-10×10^3 cells/well in 100 μL of culture medium. The following day, different concentrations of candidate compounds were added and the cells incubated at 37° C. for 48 h. Subsequently, 10 μL/well of WST-1 reagent was added and the cells reincubated for 1 hour. After the incubation time, absorbance was measured.
(§3) WST-1 is a tetrazolium salt which is cleaved to formazan dye by cellular enzymes. […] The formazan dye produced is quantified by a scanning multiwell spectrophotometer by measuring the absorbance of the dye solution at 450 nm wavelength (reference wavelength 690 nm).
(§4) Percent activity (% activity) in reducing the number of viable cells was calculated for each test compound as: % activity={(S^C−B)/(S^o−B)}×100 wherein S^C denotes signal measured in the presence of the compound being tested, S^o denotes signal measured in the absence of the compound being tested, and B denotes the background signal measured in blank wells containing medium only. […]

[2] = system: NHEK-Ad primary human adult keratinocyte line; experiment: Secondary assay: cell proliferation WST-1, NHEK-Ad; assay type: cell-based; conditions: 48 h, read-out: Cell Proliferation Inhibition WST-1 (IC50 unless otherwise specified) NHEK-AD
Method: as §1
NHEK-Ad—Primary human adult keratinocyte line (Cambrex Corp., East Rutherford, N.J., USA).
as §2
as §3, with “enzymes. An expansion in the number of viable cells results in an increase in the overall activity of mitochondrial dehydrogenases in the sample.” for “enzymes.”
as §4

With `O=C(CCCCCCC(=O)Nc1ccccc1)NO` [SAHA, Suberoylanilide Hydroxamic Acid, reference compound] the IC50 [1] was 6.82 µM and the IC50 [2] was 5.3 µM.
